Data: patent US20250163121A1 (AKSTON BIOSCIENCES, published 2025)
Results are given in words; binding and its absence hold for the method and conditions named. Some entries that bind do so weakly or less than the wild type. Where a sequence is shown, tags or fusion partners need not be part of it.

Chains of the proteins cited; added tags and fusions are not shown. Residues count along the entry.
UniProt P06213, residues 28-1382: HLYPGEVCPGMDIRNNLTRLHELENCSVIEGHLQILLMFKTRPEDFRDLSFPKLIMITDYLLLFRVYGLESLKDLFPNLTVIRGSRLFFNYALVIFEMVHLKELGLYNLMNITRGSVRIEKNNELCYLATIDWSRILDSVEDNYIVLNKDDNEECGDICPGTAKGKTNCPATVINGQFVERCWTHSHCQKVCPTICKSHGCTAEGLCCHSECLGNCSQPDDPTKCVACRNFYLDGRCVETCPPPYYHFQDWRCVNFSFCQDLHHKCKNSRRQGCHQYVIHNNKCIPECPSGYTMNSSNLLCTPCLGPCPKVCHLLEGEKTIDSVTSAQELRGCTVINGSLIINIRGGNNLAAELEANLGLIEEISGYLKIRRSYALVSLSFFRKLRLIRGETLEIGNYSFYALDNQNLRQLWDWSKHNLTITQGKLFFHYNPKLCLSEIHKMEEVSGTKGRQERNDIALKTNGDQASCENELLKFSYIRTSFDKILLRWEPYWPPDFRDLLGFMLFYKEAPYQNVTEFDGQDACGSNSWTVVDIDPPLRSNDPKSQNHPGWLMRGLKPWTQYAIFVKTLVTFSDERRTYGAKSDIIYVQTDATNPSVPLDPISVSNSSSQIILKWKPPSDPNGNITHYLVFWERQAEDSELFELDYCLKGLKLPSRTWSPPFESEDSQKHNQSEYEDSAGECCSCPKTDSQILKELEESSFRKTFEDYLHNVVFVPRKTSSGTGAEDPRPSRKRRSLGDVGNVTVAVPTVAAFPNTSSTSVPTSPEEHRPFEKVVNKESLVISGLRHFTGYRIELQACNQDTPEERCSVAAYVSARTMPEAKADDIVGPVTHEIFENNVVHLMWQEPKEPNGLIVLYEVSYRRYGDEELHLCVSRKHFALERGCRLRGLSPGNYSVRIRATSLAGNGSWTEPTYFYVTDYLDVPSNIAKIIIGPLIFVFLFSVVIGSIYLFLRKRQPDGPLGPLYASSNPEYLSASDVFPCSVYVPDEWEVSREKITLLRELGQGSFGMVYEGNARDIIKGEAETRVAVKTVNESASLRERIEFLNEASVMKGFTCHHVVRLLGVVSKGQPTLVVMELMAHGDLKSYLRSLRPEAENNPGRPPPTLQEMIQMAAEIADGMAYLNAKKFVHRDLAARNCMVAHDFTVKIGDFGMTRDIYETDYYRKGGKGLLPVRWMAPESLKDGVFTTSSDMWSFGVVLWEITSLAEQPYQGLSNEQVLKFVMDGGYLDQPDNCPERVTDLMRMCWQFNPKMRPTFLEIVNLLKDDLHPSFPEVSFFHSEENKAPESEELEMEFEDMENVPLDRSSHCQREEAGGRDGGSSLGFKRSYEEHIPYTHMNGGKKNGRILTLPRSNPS

B1: insulin-Fc fusion protein of SEQ ID NO: 31 (SEQ ID NO: 26 with des hinge D and the mutation cNg-NB138-K; canine IgGB Fc fragment SEQ ID NO: 16) (Fc fusion)
chain: FVNQHLCGSDLVEALALVCGERGFFYTDPTGGGPRRGIVEQCCHSICSLYQLENYCNGGGGAGGGGCPKCPAPEMLGGPSVFIFPPKPKDTLLIARTPEVTCVVVDLDPEDPEVQISWFVDGKQMQTAKTQPREEQFKGTYRVVSVLPIGHQDWLKGKQFTCKVNNKALPSPIERTISKARGQAHQPSVYVLPPSREELSKNTVSLTCLIKDFFPPDIDVEWQSNGQQEPESKYRTTPPQLDEDGSYFLYSKLSVDKSRWQRGDTFICAVMHEALHNHYTQESLSHSPG
notes: Non-glycosylated homodimer made in HEK293 cells; 98.1% homodimer; also called cNg-K with des hinge D
B2: insulin-Fc fusion protein of SEQ ID NO: 29 (SEQ ID NO: 26 with the mutation cNg-NB139-S; canine IgGB Fc fragment SEQ ID NO: 15) (Fc fusion)
chain: FVNQHLCGSDLVEALALVCGERGFFYTDPTGGGPRRGIVEQCCHSICSLYQLENYCNGGGGAGGGGDCPKCPAPEMLGGPSVFIFPPKPKDTLLIARTPEVTCVVVDLDPEDPEVQISWFVDGKQMQTAKTQPREEQFSGTYRVVSVLPIGHQDWLKGKQFTCKVNNKALPSPIERTISKARGQAHQPSVYVLPPSREELSKNTVSLTCLIKDFFPPDIDVEWQSNGQQEPESKYRTTPPQLDEDGSYFLYSKLSVDKSRWQRGDTFICAVMHEALHNHYTQESLSHSPG
notes: Non-glycosylated homodimer made in HEK293 cells; 98.3% homodimer; also called cNg-S

Target: human insulin receptor (on human IM-9 cells) (human) (UniProt P06213)
Test: competition with biotinylated RHI on human IM-9 cells, flow cytometry, 4 C

Row | Binder | binding
1 | B1 | binds
2 | B2 | binds
